System: Male NMRI mice
Assay: Test 2: increase of motility of mice after intravenous administration (photocell crossings)
Conditions: ratio between in vitro inhibition of 3H-GBR 12935 binding (Test 1) and in vivo activity in increasing motility (Test 2)
Procedure: The compounds were also tested for their ability to increase the motility of mice following intravenous administration using the method outlined below.
Male NMRI mice are used (20 ± 2 g). The animals are housed 20-30 per cage under constant temperature (20 ± 1°C) and relative humidity (40-60%). The animals are brought into the experimental room in the afternoon, the day before they undergo testing.
The experimentally-naive, uninjected mice are acclimatized by being placed in a plexiglass box (WLH: 20 x 20 x 38 cm), four per box, for a 120 min period, and then injected with the test compound whereafter they are replaced in the plexiglass box.
The plexiglass box is equipped with a frame of photocells (spaced equidistantly) which are situated so as to detect locomotor behaviour of the animals (1 cm above the floor). The photocell chamber is housed in an sound-insulated, dimly-lit, ventilated chest. As a measure of exploratory behaviour, the number of photocell crossings in a 360 min period is detected using a minicomputer. Testing is made between 7:00 and 17.00 h.
Drugs are injected i.v. simultaneously with start of testing; N = 4/dose; 4-5 doses of test drug is given in a volume of 10 ml/kg. […]

SMILES: N#CCCCCN1CCN(CCOC(c2ccc(F)cc2)c2ccc(F)cc2)CC1 [Example 4A, 1-[2-(bis-(4-fluorophenyl)-methoxy)-ethyl]-4-(4-cyanobutyl)-piperazine]
- Ratio: 7.5

— patent EP0541617B1, “1,4-DISUBSTITUTED PIPERAZINES” (NOVO NORDISK A/S, priority 1990, dated 1992)
